Experimental data reported in PubChem BioAssay AID504444 (National Center for Advancing Translational Sciences (NCATS), 2011).
The whole screen tested about 360,000 compounds, of which about 7,500 (2.1%) were called active. Inconclusive means that the source gave no clear call. Such entries were picked first, then a sample of the others. Calls follow the shape of the dose curve; as a rule, active = well fitted inhibition curve with a large enough effect; inconclusive = small, poorly fitted or top-dose-only effect, or effect the other way; inactive = flat fitted curve, though single readings scatter. A potency beside an inconclusive call is a rough fit, not a confirmed value.
% is scaled to controls: 0 for no effect and ±100 for the full control effect; potency is read from the fitted curve at half-maximal effect.

Assay: Nrf2 qHTS screen for inhibitors; also: nearly all actives have a fitted effect of over 60% in size
Conditions: A549 ARE-Fluc reporter, luciferase luminescence, 18-24 h; activity change, negative = inhibition: at 46 µM (top of the series)
In short: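 Reporter: ARE-Fluc in A549. Exposure: 18-24 h, 37 °C, 5% CO2, 5% FBS OPTI-MEM. Readouts: fluorescent cytotoxicity (CellTiter-Fluor), then luminescent Nrf2 signal after BugLite.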
In the case of `COCCN(C(=O)COC(=O)/C=C/c1nc2ccccc2s1)c1c(N)n(Cc2ccccc2)c(=O)[nH]c1=O`, the Potency is reported as inconclusive: 23.1 µM [falling, single point]. In the case of `NC(=S)N/N=C\c1ccccc1OCc1ccccc1`, the “activity change, negative = inhibition” value is reported as inactive: -2.92%. With `CCOc1ccc(-c2cc(-c3nc(-c4ccc(OC)c(OC)c4)no3)[nH]n2)cc1` the Potency was inconclusive: 20.6 µM [falling, partial curve, poor fit]. With `COc1ccc(OCC(=O)N/N=C/c2ccc(N(C)C)cc2)cc1` the Potency was inconclusive: 14.6 µM [activator, partial curve, poor fit]. With `COc1ccc(Cc2nc3ccccc3n2Cc2ccccc2F)cc1` the Potency was active: 18.4 µM. In the case of `CC(=O)c1ccc(NC(=O)CC(c2cccs2)N2Cc3ccccc3C2=O)cc1` (configuration not stated), the Potency is reported as inconclusive: 29.1 µM [activator, single point]. In the case of `COc1ccc(C(=O)n2nc(C)c(Br)c2C)cc1`, the “activity change, negative = inhibition” value is reported as inactive: -13.3%. For `COc1ccc(OCC(=O)Nc2cc(-c3nn4c(C)nnc4s3)ccc2C)cc1`, the Potency was inconclusive: 8.2 µM [activator, partial curve, poor fit]. With `c1ccc(OCc2nn3c(-c4ccco4)nnc3s2)cc1` the Potency was inconclusive: 1.84 µM [falling, full curve, poor fit]. In the case of `CC1CCCCN1C(=O)COC(=O)c1cc(Cl)c2c(c1)OCO2` (configuration not stated), the Potency is reported as inconclusive: 23.1 µM [activator, single point]. For `Cc1ccc(S(=O)(=O)Nc2cc(Cl)c(O)c3ncccc23)cc1`, the Potency was active: 20.6 µM. For `CCOC(=O)c1ccc2c(c1)nc(-c1ccccn1)n2CC`, the Potency was inconclusive: 7.31 µM [activator, partial curve]. With `COc1ccc(-c2csc3ncnc(N4CCN(c5cccc(Cl)c5)CC4)c23)cc1` the Potency was inconclusive: 16.4 µM [falling, single point]. With `COc1ccc(OC)c(C(=O)/C=C/c2ccccc2C(F)(F)F)c1` the Potency was inconclusive: 29.1 µM [falling, single point]. For `CC(C)(C)C(=O)NC1(C(F)(F)F)C(=O)Nc2c1c(=O)[nH]c(=O)n2-c1ccccc1` (configuration not stated), the “activity change, negative = inhibition” value was inactive: 8.5%. For `O=C(CCc1nc2ccccc2c(=O)[nH]1)Nc1cc(C(F)(F)F)ccc1N1CCCC1`, the Potency was inconclusive: 0.461 µM [activator, full curve, poor fit]. With `O=C(N/N=C/c1ccc(O)cc1O)c1ccc(NC(=O)C2CCCCC2)cc1` the Potency was inconclusive: 11.6 µM [falling, partial curve]. For `Cc1nnc(N2CCC(C(=O)NCCc3ccccc3)CC2)c2nn(-c3ccc(Cl)cc3)c(C)c12`, the Potency was inconclusive: 29.1 µM [activator, single point]. With `COc1cccc(/C=N/NC(=O)CC2C(=O)NN=C2C)c1OC` (configuration not stated) the “activity change, negative = inhibition” value was inactive: 3.46%. With `Cc1ccc(S(=O)(=O)N2CCN(C(=O)c3ccco3)CC2)c(C)c1` the “activity change, negative = inhibition” value was inactive: 0.809%. For `Cc1ccc2[nH]c(C)c(/C=N/Nc3nc4ccccc4s3)c2c1`, the Potency was inconclusive: 29.1 µM [falling, single point]. With `COc1cc(OC)cc(C(=O)N[C@H](C(=O)OCC(=O)Nc2ccc(C)cc2C)C(C)C)c1` the “activity change, negative = inhibition” value was inactive: 2.15%. With `CC(C)(C)NC(=O)COc1ccc(-c2ccccc2)cc1` the Potency was inconclusive: 29.1 µM [falling, single point]. In the case of `COc1cccc(C(=O)N/N=C/c2ccc(Oc3ccc([N+](=O)[O-])cn3)c(OC)c2)c1`, the Potency is reported as active: 23.1 µM. In the case of `O=C(COc1ccccc1-c1ccccc1)N/N=C/c1ccccn1`, the Potency is reported as inconclusive: 29.1 µM [falling, partial curve, poor fit]. With `COc1ccc(N=C2C(=Nc3ccc(OC)cc3)N(c3ccccc3)C(=S)N2C(=O)c2ccc(Cl)cc2)cc1` the Potency was inconclusive: 25.9 µM [activator, single point]. For `CCCc1ccc(-c2cc(NC(=O)CSc3nnc(N)s3)n(-c3ccccc3)n2)cc1`, the Potency was inconclusive: 29.1 µM [activator, single point]. In the case of `CCC1CN(C(=O)Nc2ccc(C)c(F)c2)c2ccccc2S1` (configuration not stated), the Potency is reported as inconclusive: 29.1 µM [falling, single point]. In the case of `CCSc1nnc(NC(=O)NC(CC)(C(F)(F)F)C(F)(F)F)s1`, the Potency is reported as inconclusive: 20.6 µM [falling, single point]. With `CC(C)OC(=O)/C(C#N)=C/c1cn(C)c2ccccc12` the Potency was inconclusive: 4.61 µM [activator, full curve, poor fit]. For `O=C(NC(=S)Nc1ccc(CN2CCOCC2)cc1)c1ccc(-c2cccc(Cl)c2)o1`, the Potency was inconclusive: 20.6 µM [falling, partial curve, poor fit]. In the case of `O=C(Nc1nccs1)c1ccc(Br)c(S(=O)(=O)N2CCOCC2)c1`, the Potency is reported as inconclusive: 10.3 µM [falling, partial curve, poor fit]. In the case of `Nc1nc(CSC(=S)N2CCOCC2)nc(Nc2ccc(F)cc2)n1`, the Potency is reported as inconclusive: 10.3 µM [activator, partial curve, poor fit]. For `CC(Sc1n[nH]c(N)n1)C(=O)NC1CCCCC1C` (configuration not stated), the “activity change, negative = inhibition” value was inactive: 1.53%. For `C/C(=N\Nc1nc2ccccc2[nH]1)c1cc2ccccc2o1`, the Potency was inconclusive: 29.1 µM [activator, single point]. In the case of `O=C(Nc1ccc2oc(-c3ccncc3)nc2c1)c1ccc2c(c1)OCCO2`, the Potency is reported as inconclusive: 18.4 µM [falling, partial curve]. With `CN1CCC(=O)N(C(CSc2ccc(Br)cc2)Cc2ccccc2)CC1` (configuration not stated) the “activity change, negative = inhibition” value was inactive: 7.24%. For `COc1ccc2[nH]c3c(NCCC4=CCCCC4)ncnc3c2c1`, the Potency was inconclusive: 29.1 µM [falling, single point]. For `COc1ccc(Cl)cc1NC(=O)CCCN1C(=O)C(c2ccccc2)Oc2cccnc21` (configuration not stated), the Potency was inconclusive: 20.6 µM [falling, single point]. In the case of `COc1ccc(N2CCN(C(=O)[C@H](C)N3C(=O)C4CC=CCC4C3=O)CC2)cc1` (some centres not stated), the Potency is reported as inconclusive: 32.6 µM [falling, single point]. With `C=C1C(=O)C23C(O)C1CCC2C12CCCC(C)(COC(C)=O)C1C(O)C3(O)OC2` (configuration not stated) the Potency was active: 9.2 µM. With `COc1ccc(-c2ccc(CCC(=O)O)n2CC(=O)Nc2ccccc2C)cc1` the “activity change, negative = inhibition” value was inactive: -3.02%.
